Test results published in PubChem BioAssay (EPA / NIEHS).
Values joined by “and” are separate entries in the source; they are usually repeats but may differ in a detail not shown here. Identical values can stand only once. Inconclusive means that the source gave no clear call. Such entries were picked first, then a sample of the others. Potencies of inconclusive entries are doubtful fits and often do not repeat. Active and inactive are the calls of the source. The calls were made as follows: active = hit-call score of the fitted dose curve at least 0.9, where 1 is the maximum; inconclusive = response in the unintended direction; inactive = score below 0.9.

experiment: TOX21_p53_BLA_p4_viability: Viability Assessment in the Tox21 HCT-116 p53 Agonism Beta-lactamase Assay, Phase 4 (AID 2283597);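 also: hits lower the luminescence signal meaning cytotoxicity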
Description: TOX21_p53_BLA_p4 is a cell-based, single-readout assay that uses HCT116, a human intestinal cell line, […] in a 1536-well plate.TOX21_p53_BLA_p4_viability is an assay readout measuring cellular ATP content and detected with CellTiter-Glo Luciferase-coupled ATP quantitation.TOX21_p53_BLA_p4_viability used a type of viability reporter where loss-of-signal activity can be used to understand changes in the cell viability. Furthermore, this assay endpoint can be referred to as a secondary readout, because this assay has produced multiple assay endpoints where this one serves a viability function. To generalize the intended target to other relatable targets, this assay endpoint is annotated to the cell cycle intended target family, where the subfamily is cytotoxicity.
Thawing Method: Place 14 mL of pre-warmed thaw medium into a 15 mL of conical tub. Remove the vial of cells to be thawed from liquid nitrogen and thaw rapidly by placing at 37C in a water bath with gentle agitation for 1-2 minutes. Decontaminate the vial by wiping with 70% ethanol before opening in a biological safety cabinet. Transfer the vial contents drop-wise into 14 mL of thaw medium in a sterile 15-mL conical tub. Centrifuge cells at 900 rpm for 4 minutes and resuspend in thaw medium. Transfer contents to the T75 tissue culture flask containing Thaw Medium and place flask in a humidified 37C/5% CO2 incubator. Switch to growth medium at first passage.Propagation Method: Aspirate medium, rinse once in DPBS, add 0.25% Trypsin/EDTA and swirl to coat the cell evenly. Add an equal volume of Growth Medium to inactivate Trypsin after 2-3 minutes incubation at 37C. Centrifuge cells at 900 rpm for 4 minutes and resuspend in growth medium. Cell should be passage or fed at least twice a week.Assay Protocol: Harvest cells from culture in growth medium and resuspend in assay medium. 2.2 Dispense 4000 cells/5 uL/well into 1536-well black/clear bottom plates using a Multidrop dispenser. After the cells were incubated at 37C for 5 hours, 23 nL of compounds dissolved in DMSO were transferred to the assay plate by a PinTool resulting in a 217-fold dilution. Incubate the plates for 16 hours at 37C, 5% CO2. Add 1 uL of 6X LiveBLAzer FRET B/G (CCF4-AM) Substrate Mixture to each well using a BioRAPTR dispenser and incubate the plates at room temperature for 2 hours. Measure fluorescence intensity at 460 and 530 nm emission and 405 nm excitation by an Envision detector. Data is expressed as the ratio of 460nm/530nm emissions. Add 4 uL of Cell-titer Glo to each well using BioRAPTR and incubate the plates at room temperature for […]. For cell viability readout that measures cytotoxicity, 4 ul/well of CellTiter-Glo reagent was added into the assay plates using a Flying Reagent Dispenser. After 30 min incubation at room temperature, the luminescence intensity in the plates was measured using a ViewLux plate reader.

| Compound | outcome | AC50 |
| --- | --- | --- |
| Nc1ccc2cc(S(=O)(=O)O)ccc2c1 | inactive |  |
| NC(=S)N/N=C/c1cccnc1 | inactive |  |
| CCCCN(CCCC)CCCCCCN(CCCC)CCCC |  | inconclusive: 0.82 µM |
| CCC(C)=O | inactive |  |
| O=C1NC2NC(=O)NC2N1 (stereo not given) | inactive |  |
| COc1cc(C(=O)N2CCOCC2)cc(OC)c1OC |  | inconclusive: 43 µM |
| C=C(C)C(=O)OC(C)C |  | inconclusive: 46.2 µM |
| CNCC[C@@H](Oc1ccccc1C)c1ccccc1 | inactive |  |
| Nc1cc([N+](=O)[O-])ccc1C(=O)O |  | inconclusive: 0.855 µM |
| CCCCCCOC(=O)c1cccnc1 |  | inconclusive: 42.9 µM |
| Nc1ccccc1S(=O)(=O)c1ccccc1 |  | inconclusive: 46.1 µM |
| CCC(=O)c1cccc(Cl)c1 |  | inconclusive: 46.8 µM |
| CC1=C(O)C(=O)C(C)O1 (stereo not given) |  | inconclusive: 0.587 µM |
| CC(=O)OC1CCCCC1C(C)(C)C (stereo not given) | inactive |  |
| CC(C)(COP(=O)(O)OP(=O)(O)OC[C@H]1O[C@@H](n2cnc3c(N)ncnc32)[C@H](O)[C@@H]1OP(=O)(O)O)C(O)C(=O)NCCC(=O)NCCS (stereo not given in full) | inactive |  |
| O=C1CCC(c2ccccc2)(C2CCN(Cc3ccccc3)CC2)C(=O)N1 (stereo not given) | inactive |  |
| CCOc1nc2cccc(C(=O)OC(C)OC(=O)OC3CCCCC3)c2n1Cc1ccc(-c2ccccc2-c2nn[nH]n2)cc1 (stereo not given) |  | active: 13.4 µM |
| CC12CCC(CC1=O)C2(C)C (stereo not given) | inactive |  |
| CN(CCCN1c2ccccc2CCc2ccccc21)CC(=O)c1ccc(Cl)cc1 |  | inconclusive: 0.0202 µM |
| Cc1ccc(S(=O)(=O)NC(=O)NC2CCCC2)cc1 |  | inconclusive: 23 µM |

| Compound | outcome | AC50 |
| --- | --- | --- |
| CN1CCN(c2cc3c(cc2F)c(=O)c(C(=O)O)cn3-c2ccc(F)cc2)CC1 |  | inconclusive: 23 µM |
| CN(C)c1ccc(SC#N)cc1 | inactive |  |
| ClC(Cl)(Br)Br |  | inconclusive: 45.4 µM |
| Cc1c(C2(c3cc(Br)c(O)c(Br)c3C)OS(=O)(=O)c3ccccc32)cc(Br)c(O)c1Br |  | active: 28.4 µM |
| Nc1cccc([N+](=O)[O-])c1 | inactive |  |
| CCC(C)(O)CCCC(C)C (stereo not given) |  | inconclusive: 46.1 µM and inconclusive: 1.41 µM |
| NC(=O)N(O)[C@@H]1C=C[C@H](Oc2cccc(Oc3ccc(F)cc3)c2)C1 |  | active: 84.2 µM |
| BrC(Br)C(Br)Br |  | inconclusive: 45.9 µM |
| Cc1ccc(OC(=O)c2ccccc2O)cc1 |  | inconclusive: 46.1 µM |
| c1ccc2c(c1)Oc1ccccc1S2 |  | inconclusive: 9.27 µM |
| Cc1c(I)c(=O)n(-c2ccccc2)n1C |  | inconclusive: 23 µM |
| CC(COc1ccccc1)NC(C)C(O)c1ccc(O)cc1 (stereo not given) |  | inconclusive: 10.3 µM |
| C=CCN1CCCC1CNC(=O)c1cc(S(N)(=O)=O)cc(OC)c1OC (stereo not given) |  | inconclusive: 23 µM |
| CCCCCCCC/C=C\CCCCCCCC(=O)OC |  | inconclusive: 46.1 µM |
| CC(C)(c1cc(Br)c(O)c(Br)c1)c1cc(Br)c(O)c(Br)c1 |  | active: 34.3 µM and active: 46 µM |
| CCCCC[C@H](O)/C=C/[C@@H]1[C@H]2C/C(=C/CCCC(=O)O)O[C@H]2C[C@H]1O | inactive |  |
| [Cl][In]([Cl])[Cl] | inactive |  |
| O=C(O)c1cc2cc(Cc3cccnc3)ccc2o1 |  | inconclusive: 0.000317 µM |
| CCCCN1CCCC1C(=O)Nc1c(C)cc(C)cc1C (stereo not given) | inactive |  |
